# PubChem BioAssay AID686937 – Drosophila RNAi Screening Center – 2013
# Screen: 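Knock-downs that reduce output of a secreted reporter enzyme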 (primary screen)
# System: Drosophila S2 cells expressing secreted horseradish peroxidase
# Reagent: long dsRNA against Drosophila genes
# Time to read-out: about 5.5 days (5 days dsRNA, then 12 h reporter induction)
# Challenge: reporter expression induced after 5 days of dsRNA, read 12 h later; inducer not stated
# Read-out: 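Chemiluminescent measurement of peroxidase in the medium 12 h after reporter induction, following 5 days of dsRNA, given as a z-score per plate; higher means more secretion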
# Direction: z-score: higher = more reporter secreted into medium
# The screen tested about 23,000 reagents; shown is a random part of those that have a named target and a result. 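Reduced-secretion tags in replicate 1 do not always agree with the z-scores; no criterion for assigning the tags was given.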 Reagents against one gene are numbered here. The record does not give: the amount of reagent.
predicted target,reagent no.,"z-score, replicate 1","z-score, replicate 2","z-score, replicate 3","z-score, replicate 4"
CG4332,1,0.49,0.3,,
Clp (Clipper),1,-0.45,-0.62,,
CG4593,1,0.03,0.58,,
CG12398,1,-0.29,-0.75,,
Proc-R (Proctolin receptor),1,0.29,0.23,,
CG11030,1,-0.51,-0.17,,
Yp3 (Yolk protein 3),1,0.4,0.57,,
Dysb (Dysbindin),1,0.37,-0.05,,
CG13117,1,0.58,0.34,,
sowah (sosondowah),1,-0.07,0.06,,
sowah (sosondowah),2,0.29,0.45,,
CG6418,1,0.55,0.58,,
CG44153,1,0.21,0.35,,
CG44153,2,0.23,0.36,,
CG44153,3,-0.03,-0.06,,
CG44153,4,-0.08,0.12,,
CG44153,5,-0.02,0.12,,
CG44153,6,0.59,0.32,,
CG44153,7,0.31,0.21,,
CG13024,1,0.26,0.3,,
Cyp40 (Cyclophilin 40),1,-0.2,0.1,,
CG18304,1,0.07,0.19,,
teq (Tequila),1,0.42,-0.02,,
teq (Tequila),2,0.31,0.02,,
teq (Tequila),3,0.44,0,,
CG14036,1,0.33,0.27,,
CG10445,1,0.03,0.23,,
CG11227,1,0.36,0.21,,
Acyp (Acylphosphatase),1,0.67,0.5,,
f-cup (flyers-cup),1,-0.15,-0.04,,
Dgk (Diacyl glycerol kinase),1,-0.92,,,
Dgk (Diacyl glycerol kinase),2,0.47,,,
Dgk (Diacyl glycerol kinase),3,0.54,0.36,,
Dgk (Diacyl glycerol kinase),4,0.29,0.3,0.52,0.39
Dgk (Diacyl glycerol kinase),5,0.06,-0.32,,

Taken from above.
Dgk (Diacyl glycerol kinase) #5, z-score, replicate 2: -0.32
CG44153 #2, z-score, replicate 2 → 0.36
